Publication PMC8988195
These are yes or no findings as the source states them, for the method shown.

Target: bovine serum albumin (bovine), P02769
Assay: ELISA; plates coated with recombinant proteins (1 μg/ml) or BSA; blocked with PBS/2% BSA; normal human serum (0–100% in PBS) for 90 min at 37°C; detected with anti-FH, anti-C4BP or anti-PLG and HRP conjugate, read at 450 nm; only the target purified
Settings: remark: other sources report otherwise

B1: Factor H, P08603 19-1231 (protein)
chain: EDCNELPPRRNTEILTGSWSDQTYPEGTQAIYKCRPGYRSLGNVIMVCRKGEWVALNPLRKCQKRPCGHPGDTPFGTFTLTGGNVFEYGVKAVYTCNEGYQLLGEINYRECDTDGWTNDIPICEVVKCLPVTAPENGKIVSSAMEPDREYHFGQAVRFVCNSGYKIEGDEEMHCSDDGFWSKEKPKCVEISCKSPDVINGSPISQKIIYKENERFQYKCNMGYEYSERGDAVCTESGWRPLPSCEEKSCDNPYIPNGDYSPLRIKHRTGDEITYQCRNGFYPATRGNTAKCTSTGWIPAPRCTLKPCDYPDIKHGGLYHENMRRPYFPVAVGKYYSYYCDEHFETPSGSYWDHIHCTQDGWSPAVPCLRKCYFPYLENGYNQNYGRKFVQGKSIDVACHPGYALPKAQTTVTCMENGWSPTPRCIRVKTCSKSSIDIENGFISESQYTYALKEKAKYQCKLGYVTADGETSGSITCGKDGWSAQPTCIKSCDIPVFMNARTKNDFTWFKLNDTLDYECHDGYESNTGSTTGSIVCGYNGWSDLPICYERECELPKIDVHLVPDRKKDQYKVGEVLKFSCKPGFTIVGPNSVQCYHFGLSPDLPICKEQVQSCGPPPELLNGNVKEKTKEEYGHSEVVEYYCNPRFLMKGPNKIQCVDGEWTTLPVCIVEESTCGDIPELEHGWAQLSSPPYYYGDSVEFNCSESFTMIGHRSITCIHGVWTQLPQCVAIDKLKKCKSSNLIILEEHLKNKKEFDHNSNIRYRCRGKEGWIHTVCINGRWDPEVNCSMAQIQLCPPPPQIPNSHNMTTTLNYRDGEKVSVLCQENYLIQEGEEITCKDGRWQSIPLCVEKIPCSQPPQIEHGTINSSRSSQESYAHGTKLSYTCEGGFRISEENETTCYMGKWSSPPQCEGLPCKSPPEISHGVVAHMSDSYQYGEEVTYKCFEGFGIDGPAIAKCLGEKWSHPPSCIKTDCLSLPSFENAIPMGEKKDVYKAGEQVTYTCATYYKMDGASNVTCINSRWTGRPTCRDTSCVNPPTVQNAYIVSRQMSKYPSGERVRYQCRSPYEMFGDEEVMCLNGNWTEPPQCKDSTGKCGPPPPIDNGDITSFPLSVYAPASSVEYQCQNLYQLEGNKRITCRNGQWSEPPKCLHPCVISREIMENYNIALRWTAKQKLYSRTGESVEFVCKRGYRLSSRSHTLRTTCWDGKLEYPTCAKR
binding: no binding
